Test results published in PMC7819943, “Rice protein-binding microarrays: a tool to detect cis-acting elements near promoter regions in rice”.
This is one part of the list.

Chains of the proteins cited; added tags and fusions are not shown.
UniProt Q0JBA9, entry or part of it: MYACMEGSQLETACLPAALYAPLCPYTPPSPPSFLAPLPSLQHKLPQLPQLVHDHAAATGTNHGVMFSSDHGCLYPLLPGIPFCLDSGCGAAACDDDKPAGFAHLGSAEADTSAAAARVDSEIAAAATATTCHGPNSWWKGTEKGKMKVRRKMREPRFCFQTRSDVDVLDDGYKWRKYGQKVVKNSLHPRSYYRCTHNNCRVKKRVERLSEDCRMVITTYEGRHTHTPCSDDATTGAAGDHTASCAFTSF

These sequences were tested against OsWRKY34 (Oryza sativa, UniProt Q0JBA9 1-250) (assay: protein-binding microarray (RPBM); PBS, 2% BSA, 51.3 ng/ul salmon testes DNA, 50 uM zinc acetate, 200 nM TF, 25 C, 1 h; high values mean tight binding). Settings: protein: recombinant; tags: N-terminal polyhistidine and DsRed monomer fusion (pET32a); label: CyDye5-dUTP incorporated in the synthesized complementary strand; 3' TTTTT single-stranded linker to array surface; dsDNA, one strand shown.
Procedure, shortened: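 Binding signal is reported as fluorescence intensity per feature (arbitrary units) from an Axon 4000B scanner. Incubation used 200 nM of each Ni–NTA-purified, N-terminally polyhistidine- and DsRed-fused transcription factor from E. coli BL21-CodonPlus on a double-stranded custom Agilent array for 1 h at 25 °C, with 50 µM zinc acetate in the buffer, followed by washing.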

Sequence	binding signal
CGGTCTGCACAGAATTTTTTTCCAAGTTTGTGTCCTTTCTCGGAGTCACCTAGTGCAG	10100 fluorescence intensity (a.u.)
CCCACCTCTCTCTCTCTCTCTCCCCTGGTCTCTCGCTCTCCGGAGTCACCTAGTGCAG	9180 fluorescence intensity (a.u.)
TTGTTCCTCCTGTCCTGTCCATAGCTCATGCAACACAAGCCGGAGTCACCTAGTGCAG	9210 fluorescence intensity (a.u.)
CCTTTTTCTGTCGGTTAATTCGGCGACGTCTGATCCGCCACGGAGTCACCTAGTGCAG	8970 fluorescence intensity (a.u.)
CGCCGCCATTTCCGCCTCTTCTTCTCTTAAACAAAAAGCCCGGAGTCACCTAGTGCAG	10200 fluorescence intensity (a.u.)
TTCGAATCCCTTCGCTGATGCATTGTTTTTTCTATTTTGCCGGAGTCACCTAGTGCAG	10000 fluorescence intensity (a.u.)
CATAGCCACACAATCATACTAGCATTATCTCCTCATCATTCGGAGTCACCTAGTGCAG	9140 fluorescence intensity (a.u.)
CCTCTCGGGCGCCTCTCCTCTCCATCATTCCTCCCACTGCCGGAGTCACCTAGTGCAG	9880 fluorescence intensity (a.u.)
ACGTTTTTCCTATTCCTATGATTTTACATTTCTTTGTTCCCGGAGTCACCTAGTGCAG	8610 fluorescence intensity (a.u.)
CTCGGCCACCGCCGGGTTCGCCTCCAGTGCTCGCCGCCTCCGGAGTCACCTAGTGCAG	9920 fluorescence intensity (a.u.)
ATATTCACAGAGTCCATGGTGTTTTGAATCTCTTCTTCTTCGGAGTCACCTAGTGCAG	8200 fluorescence intensity (a.u.)
CTAGTCTTCCACTTTTCCGCAGCCAGTAAACGCGCCCGCGCGGAGTCACCTAGTGCAG	8180 fluorescence intensity (a.u.)
GCTTTTTTGACCGGTCGCCTCCGTCGATATTTTCCCGCGCCGGAGTCACCTAGTGCAG	13300 fluorescence intensity (a.u.)
CTTTTTTTTGGTTTGCCGTGTGGTGGGTTTCGGGTCCGCGCGGAGTCACCTAGTGCAG	14500 fluorescence intensity (a.u.)
AGTCATGATGGCCAATGGTATTTCGTGCATTTCTTACATTCGGAGTCACCTAGTGCAG	9710 fluorescence intensity (a.u.)
GCGTTTTACAAGTTTATGTACTAGATTACACCCACCTGATCGGAGTCACCTAGTGCAG	10000 fluorescence intensity (a.u.)
GTATGGTACAGCACATTTCTCTGTTCAAGTGTTCATTATGCGGAGTCACCTAGTGCAG	8610 fluorescence intensity (a.u.)
AGTATCATATTGTAGTTCTTTATCTGACTTGCTTCGATTCCGGAGTCACCTAGTGCAG	8390 fluorescence intensity (a.u.)
GTGGTTATTTCTGGTGCCTTATTATGGAATCTCTTCCGTTCGGAGTCACCTAGTGCAG	9220 fluorescence intensity (a.u.)
TATTTATTTATTTTATTTTTGACTTACTTTATTATTCAATCGGAGTCACCTAGTGCAG	8130 fluorescence intensity (a.u.)
TGGGTGGTAAATGGGTTTCTAGCTGGTATAAGTACTACACCGGAGTCACCTAGTGCAG	9670 fluorescence intensity (a.u.)
GCTAGCTTGGGTTTCTGCTGTGCTGTCTAGTTCCTTTCCTCGGAGTCACCTAGTGCAG	8320 fluorescence intensity (a.u.)
TGCGTGTGTGGGTGTGTGGTGGAGTGAGTAAAAAGTGAAGCGGAGTCACCTAGTGCAG	8150 fluorescence intensity (a.u.)

A second format for part of the listing above:

| Sequence | binding signal |
| --- | --- |
| CCTTTTTCTGTCGGTTAATTCGGCGACGTCTGATCCGCCACGGAGTCACCTAGTGCAG | 8970 fluorescence intensity (a.u.) |
| CGCCGCCATTTCCGCCTCTTCTTCTCTTAAACAAAAAGCCCGGAGTCACCTAGTGCAG | 10200 fluorescence intensity (a.u.) |
| CCTCTCGGGCGCCTCTCCTCTCCATCATTCCTCCCACTGCCGGAGTCACCTAGTGCAG | 9880 fluorescence intensity (a.u.) |
| GTGGTTATTTCTGGTGCCTTATTATGGAATCTCTTCCGTTCGGAGTCACCTAGTGCAG | 9220 fluorescence intensity (a.u.) |
